Assay [1] addresses PAC1R-SmBiT (human) (UniProt P41586). Kind of assay: split reporter; NanoBiT in mouse primary cultured cortical neurons (DIV 3) infected with lentiviruses; PACAP dose series and time course to 60 min; time-lapse imaging with 1 μM PACAP.
Assay [2] shares this target. The assay can be described thus: split reporter; NanoBiT in living HEK293T cells transfected with SmBiT and LgBiT fusions, Opti-MEM, Nano-Glo Live Cell Reagent, GloMAX discover; stimulated with PACAP (100 nM; dose series; up to 60 min); pretreatments for 30 min: 30 μM CMPD101 (inhibited), 20 μM H89 or 50 μM sphingosine (no effect).
Assay [3] shares this target. Kind of assay: split reporter; NanoBiT time-lapse luminescence imaging (Olympus LV200) of HeLa cells infected with lentiviruses, 1 μM PACAP, 3-60 min.
The target in assay [4] is PAC1R (human (endogenous in HEK293T)) (UniProt P41586). The assay can be described thus: co-IP; HEK293T cells stimulated with 1 μM PACAP for 15 min, cross-linked with 2.5 mM DSP for 30 min at room temperature, lysed in RIPA buffer; antibody-coupled protein G-Sepharose beads, 2 h at 4°C; blots with anti-PAC1R and anti-β-arrestin1/2.

The chains behind the UniProt entries cited, without tags or fusion partners. Where a name states a change or a piece, a line headed by the entry shows the natural chain unless it says otherwise. A line that says so, or that is headed by a name, gives the form on record, which may keep a tag or linker. Residues count along the entry.
PAC1R (human (endogenous in HEK293T)) (P41586, residues 21-468): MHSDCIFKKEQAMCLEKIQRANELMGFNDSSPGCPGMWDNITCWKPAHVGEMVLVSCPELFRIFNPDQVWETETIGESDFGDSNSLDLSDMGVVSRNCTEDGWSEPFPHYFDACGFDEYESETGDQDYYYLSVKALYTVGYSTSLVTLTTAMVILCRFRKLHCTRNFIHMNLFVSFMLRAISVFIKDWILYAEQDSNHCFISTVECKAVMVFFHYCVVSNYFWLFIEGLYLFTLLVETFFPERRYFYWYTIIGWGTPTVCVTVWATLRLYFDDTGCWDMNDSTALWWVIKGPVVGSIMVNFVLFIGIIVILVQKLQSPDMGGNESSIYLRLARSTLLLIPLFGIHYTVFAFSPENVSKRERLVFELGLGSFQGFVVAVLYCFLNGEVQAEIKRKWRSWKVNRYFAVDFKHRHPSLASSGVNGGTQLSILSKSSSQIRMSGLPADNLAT
PAC1R-SmBiT (P41586, form named): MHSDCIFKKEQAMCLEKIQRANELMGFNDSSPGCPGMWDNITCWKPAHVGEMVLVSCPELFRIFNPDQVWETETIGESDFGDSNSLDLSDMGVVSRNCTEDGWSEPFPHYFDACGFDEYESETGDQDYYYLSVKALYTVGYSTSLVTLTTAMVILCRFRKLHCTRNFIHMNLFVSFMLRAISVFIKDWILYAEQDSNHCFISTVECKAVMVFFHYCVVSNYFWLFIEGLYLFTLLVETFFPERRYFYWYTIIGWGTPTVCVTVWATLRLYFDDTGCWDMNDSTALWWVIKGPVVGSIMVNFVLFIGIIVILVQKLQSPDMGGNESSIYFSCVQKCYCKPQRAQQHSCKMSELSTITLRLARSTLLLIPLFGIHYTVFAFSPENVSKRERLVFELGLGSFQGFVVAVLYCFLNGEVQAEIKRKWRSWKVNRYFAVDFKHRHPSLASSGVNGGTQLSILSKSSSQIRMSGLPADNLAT
UniProt P32121: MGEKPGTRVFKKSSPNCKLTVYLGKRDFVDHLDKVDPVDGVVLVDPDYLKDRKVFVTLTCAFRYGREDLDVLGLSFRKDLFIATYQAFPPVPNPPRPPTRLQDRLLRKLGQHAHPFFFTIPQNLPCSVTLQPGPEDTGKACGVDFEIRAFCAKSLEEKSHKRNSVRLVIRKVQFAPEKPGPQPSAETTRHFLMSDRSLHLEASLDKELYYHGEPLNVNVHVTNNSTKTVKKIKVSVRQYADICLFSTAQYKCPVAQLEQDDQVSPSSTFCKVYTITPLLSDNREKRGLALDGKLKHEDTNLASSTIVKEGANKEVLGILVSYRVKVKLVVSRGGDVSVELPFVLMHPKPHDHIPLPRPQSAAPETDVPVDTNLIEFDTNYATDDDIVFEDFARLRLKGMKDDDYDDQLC
UniProt P49407: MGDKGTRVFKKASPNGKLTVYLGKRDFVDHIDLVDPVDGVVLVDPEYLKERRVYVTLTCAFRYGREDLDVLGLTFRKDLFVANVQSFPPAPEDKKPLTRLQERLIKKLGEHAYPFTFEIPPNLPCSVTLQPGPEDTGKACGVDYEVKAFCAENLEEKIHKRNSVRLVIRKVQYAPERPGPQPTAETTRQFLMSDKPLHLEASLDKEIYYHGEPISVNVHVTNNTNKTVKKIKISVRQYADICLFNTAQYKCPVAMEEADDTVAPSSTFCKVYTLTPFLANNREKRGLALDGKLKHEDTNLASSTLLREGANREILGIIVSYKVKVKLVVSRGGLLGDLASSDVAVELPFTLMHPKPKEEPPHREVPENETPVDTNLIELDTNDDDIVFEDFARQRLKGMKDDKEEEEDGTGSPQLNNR

Results are given in words; binding and its absence hold for the method and conditions named. In cells and extracts the contact can be indirect. Some entries that bind do so weakly or less than the wild type.

In PMC5937772 one finds binding data, which are given here for four substances.

As for “LgBiT-β-arrestin2 (from UniProt P32121 1-409)”, the binding result in assay [1], in assay [2] and in assay [3] was “binds” in each case.

As for β-arrestin1 (from UniProt P49407 1-418), in assay [4], the binding entry is “binds”.

On to “β-arrestin1-LgBiT (from UniProt P49407 1-418)”, for which the binding entry in assay [1], in assay [2] and in assay [3] was “binds” in each case.

Turning to β-arrestin2 (from UniProt P32121 1-409), the binding entry in assay [4] is listed as “binds”.
